# PubChem BioAssay AID1224830 – NIAID, 2016
# Aim: 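Regulators of TLR4 signalling towards TNF-alpha in macrophage-like cells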 (primary screen)
# System: human THP-1 monocytic leukaemia cells, TNF dual-luciferase reporter clone, PMA-differentiated to macrophage-like cells
# Reagents: siRNA pool against human genes, 50 nM
# Time to read-out: LPS for 4 h, given about 3 days after siRNA transfection
# Challenge: bacterial LPS (TLR4 ligand), 10 ng/ml
# Measured: 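TNF firefly reporter luminescence divided by renilla, normalised to the plate median, then turned into a robust z-score for each replicate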
# Reading the numbers: TNF reporter robust z-score: higher = stronger TNF reporter response to LPS
# Call rule: 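a well is active when its z-score exceeds 2.8 or falls below -1.5; control wells carry no call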
# The deposit covers about 18,000 reagents; this is an unselected part. Over the whole deposit, about 2,900 (16%) are marked active. 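Calls are made per well; low scores hint the gene aids the LPS response, high scores that it dampens it.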 A number with no mark means an inactive call. Repeated entries: four replicate wells of each siRNA pool. No sequences are given here.
Target gene,TNF reporter robust z-score
OR10Z1 (GeneID 128368),-0.37
OR10Z1 (GeneID 128368),-0.1
OR10Z1 (GeneID 128368),-0.21
OR10Z1 (GeneID 128368),0.51
MID1IP1 (GeneID 58526),-0.07
MID1IP1 (GeneID 58526),-0.4
MID1IP1 (GeneID 58526),-0.41
MID1IP1 (GeneID 58526),1.68
DENND10P1 (GeneID 55855),-0.06
DENND10P1 (GeneID 55855),-0.26
DENND10P1 (GeneID 55855),0.79
DENND10P1 (GeneID 55855),2.22
MINDY4 (GeneID 84182),0.16
MINDY4 (GeneID 84182),0.58
MINDY4 (GeneID 84182),0.71
MINDY4 (GeneID 84182),1.77
SLC22A11 (GeneID 55867),-0.83
SLC22A11 (GeneID 55867),-0.94
SLC22A11 (GeneID 55867),0.72
SLC22A11 (GeneID 55867),-0.71
MMP12 (GeneID 4321),1.29
MMP12 (GeneID 4321),1.78
MMP12 (GeneID 4321),0.85
MMP12 (GeneID 4321),2.2
ZSCAN21 (GeneID 7589),0.71
ZSCAN21 (GeneID 7589),0.59
ZSCAN21 (GeneID 7589),0.07
ZSCAN21 (GeneID 7589),0.44
SLC25A36 (GeneID 55186),-0.7
SLC25A36 (GeneID 55186),0.96
SLC25A36 (GeneID 55186),-0.45
SLC25A36 (GeneID 55186),-0.21
OR4A5 (GeneID 81318),0.95
OR4A5 (GeneID 81318),1.26
OR4A5 (GeneID 81318),0.97
OR4A5 (GeneID 81318),1.39
SLC41A2 (GeneID 84102),0.34
SLC41A2 (GeneID 84102),0.6
SLC41A2 (GeneID 84102),0.03
SLC41A2 (GeneID 84102),-0.2
OR6C75 (GeneID 390323),-0.72
OR6C75 (GeneID 390323),0.76
OR6C75 (GeneID 390323),0.4
OR6C75 (GeneID 390323),1.25
IDH3B (GeneID 3420),-0.91
IDH3B (GeneID 3420),-1
IDH3B (GeneID 3420),-1.12
IDH3B (GeneID 3420),-0.43
MS4A5 (GeneID 64232),0.02
MS4A5 (GeneID 64232),0.05
MS4A5 (GeneID 64232),-0.44
MS4A5 (GeneID 64232),-0.51
OBSCN (GeneID 84033),0.76
OBSCN (GeneID 84033),0.94
OBSCN (GeneID 84033),1.01
OBSCN (GeneID 84033),0.87
WNT9B (GeneID 7484),-0.86
WNT9B (GeneID 7484),0.13
WNT9B (GeneID 7484),0.08
WNT9B (GeneID 7484),1.24
LYG2 (GeneID 254773),-1.22
LYG2 (GeneID 254773),-0.8
LYG2 (GeneID 254773),-0.85
LYG2 (GeneID 254773),0.02

More results:
Target gene,TNF reporter robust z-score
SPRY4 (GeneID 81848),-0.39
SPRY4 (GeneID 81848),0.02
SPRY4 (GeneID 81848),0.41
SPRY4 (GeneID 81848),1.35
FOXJ2 (GeneID 55810),-1.09
FOXJ2 (GeneID 55810),0.11
FOXJ2 (GeneID 55810),-0.11
FOXJ2 (GeneID 55810),0.4
PEX5 (GeneID 5830),-0.53
PEX5 (GeneID 5830),-0.08
PEX5 (GeneID 5830),-1.38
PEX5 (GeneID 5830),-0.89
MYBPH (GeneID 4608),0.18
MYBPH (GeneID 4608),-0.1
MYBPH (GeneID 4608),0.86
MYBPH (GeneID 4608),1.44
KRT79 (GeneID 338785),-0.6
KRT79 (GeneID 338785),-0.96
KRT79 (GeneID 338785),-1.14
KRT79 (GeneID 338785),-0.68
REG1B (GeneID 5968),1.77
REG1B (GeneID 5968),0.65
REG1B (GeneID 5968),2.86 (active)
REG1B (GeneID 5968),1.85
ATP5PO (GeneID 539),-0.63
ATP5PO (GeneID 539),-0.23
ATP5PO (GeneID 539),-0.07
ATP5PO (GeneID 539),-0.09
SLC22A6 (GeneID 9356),-0.24
SLC22A6 (GeneID 9356),0.2
SLC22A6 (GeneID 9356),0.16
SLC22A6 (GeneID 9356),1.05
FABP7 (GeneID 2173),-0.93
FABP7 (GeneID 2173),0.59
FABP7 (GeneID 2173),-0.6
FABP7 (GeneID 2173),0.43
UTP11 (GeneID 51118),0.67
UTP11 (GeneID 51118),-0.38
UTP11 (GeneID 51118),-0.33
UTP11 (GeneID 51118),0.46
TMEM74B (GeneID 55321),-0.46
TMEM74B (GeneID 55321),0.32
TMEM74B (GeneID 55321),-0.39
TMEM74B (GeneID 55321),0
MTPAP (GeneID 55149),0.14
MTPAP (GeneID 55149),1.05
MTPAP (GeneID 55149),0
MTPAP (GeneID 55149),1.13
